US8791155B2, “Chroman derivatives” (Edison Pharmaceuticals, Inc., priority 2003, dated 2014)
Some results were stated once for a whole list of compounds, not compound by compound.

Tested on: dopaminergic neuronal cell line
Test: High glutamate-induced oxidative stress assay (HGOS)
Format: cell-based, mouse
Details: 30 mM glutamate, 16 hrs; read-out: EC50, protection against HGOS cell injury and cell death
From the text: Protection against redox stress can be evaluated in cell culture using high glutamate induced oxidative stress (HGOS) in mouse dopaminergic cell lines. The cytotoxic effect of glutamate is not due to excitotoxicity, as this cell line is devoid of inotropic glutamate receptors. Rather, the glutamate-induced toxicity of dopaminergic cells is associated with an inhibition of cystine transport which subsequently leads to depletion of intracellular glutathione (GSH) levels (Murphy T. H., et al. Neuron 2, 1547-1558, 1989), activation of neuronal 12-lipoxygenase (Li, Y. et al., Neuron 19, 453-463, 1997), increased ROS production (Tan S. et al., J. Cell Biol. 141, 1423-1432, 1998) and elevated intracellular Cat^2+ (Li, Y. et al., see supra). Some molecules were measured for their ability to protect cells against glutamate-induced stress and the assay is detailed in Examples.
This procedure was used to induce high glutamate-induced oxidative stress (HGOS) in a dopaminergic neuronal cell line. Using this assay the potency and efficacy of test articles against HGOS neuronal cell injury and cell death was established in a high throughput manner. […]

| Compound | EC50 [µM] |
| --- | --- |
| (6-Hydroxy-2,2,7,8-tetramethyl-chroman-5-ylmethyl)-1-hydroxyurea | < 5 |

Tested on: substantia nigra-derived dopaminergic progenitor cell line
Test: MPP+ cell death assay
Format: cell-based
Details: concentrations ranging from about 1 to 25 μM; 70 μM MPP+, 24 hours

| Compound | protection of the cells tested |
| --- | --- |
| Cc1c(C)c2c(c(CSCCS(=O)(=O)O)c1O)CCC(C)(CCCC(C)CCCC(C)CCCC(C)C)O2 (stereo not drawn) [2-[6-Hydroxy-2,7,8-trimethyl-2-(4,8,12-trimethyl-tridecyl)-chroman-5-ylmethylsulfanyl]-ethanesulfonic acid] | at least 30% |
| Cc1cc(C)nc(SCc2c(O)c(C)c(C)c3c2CCC(C)(C)O3)n1 [5-(4,6-Dimethyl-pyrimidin-2-ylsulfanylmethyl)-2,2,7,8-tetramethyl-chroman-6-ol] | at least 30% |
| C=CCSCc1c(O)c(C)c(C)c2c1CCC(C)(C)O2 [5-Allylsulfanylmethyl-2,2,7,8-tetramethyl-chroman-6-ol] | at least 30% |
| Cc1c(C)c2c(c(CSC3CCCC3)c1O)CCC(C)(C)O2 [5-Cyclopentylsulfanylmethyl-2,2,7,8-tetramethyl-chroman-6-ol] | at least 30% |
| CCCCCCSCc1c(O)c(C)c(C)c2c1CCC(C)(C)O2 [5-Hexylsulfanylmethyl-2,2,7,8-tetramethyl-chroman-6-ol] | at least 30% |
